Reference: patent US20200255844A1, “MULTIPLEXED RECEPTOR-LIGAND INTERACTION SCREENS” (THE REGENTS OF THE UNIVERSITY OF CALIFORNIA, priority 2017, published 2020)
“Also recorded” adds a separate entry of the source. At least one compound was matched to its structure with a doubt left.

Tested on: OR library (pooled receptors)
Experiment: Pilot-scale multiplexed odorant screening, 6-well, barcode RNA-seq
Type: cell-based, mouse
Settings: pilot-scale multiplexed assay; screened against the OR library at 5 concentrations

C=C[C@@]1(C)CC(=O)[C@]2(O)[C@@]3(C)[C@@H](O)CCC(C)(C)[C@@H]3[C@H](O)[C@H](OC(C)=O)[C@@]2(C)O1 [forskolin]
reporter activation across the pooled OR library: nonspecifically stimulate cells independent of the OR they express; also recorded: does not show substantial differential activity between ORs
